Data source: PubChem BioAssay AID686943 (Drosophila RNAi Screening Center, 2013)

- Test: 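Knockdowns that increase or decrease active ERK after insulin receptor stimulation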 (primary screen)
- System: Drosophila S2R+ haemocyte-like cells expressing YFP-tagged ERK (Rolled)
- Reagent: long dsRNA against Drosophila genes
- Treatment: insulin stimulation versus unstimulated cells; dose and duration not given
- Measurement: 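Per-plate z-scores of phospho-ERK immunostaining normalised to YFP-tagged ERK, measured with and without insulin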
- Direction: replicate 1, z-score of dpERK with insulin and replicate 2, z-score of dpERK with insulin: higher = more active ERK per ERK-YFP after insulin
In all, the deposit lists about 23,000 reagents; shown is an unselected part of those that have a named target and a result. 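Extra replicates exist only for a retested subset of genes; insulin dose and duration not given; both raised and lowered dpERK matter.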 Reagents against one gene are numbered here. Not all columns of the deposit are shown. The record does not give: the amount of reagent, the time to read-out.

ubl showed replicate 1, z-score of dpERK with insulin 1.1; replicate 2, z-score of dpERK with insulin -0.23.
TfIIFbeta #1 gave replicate 1, z-score of dpERK with insulin 0.54; replicate 2, z-score of dpERK with insulin 0.44.
Depletion of TfIIFbeta #2 resulted in: replicate 1, z-score of dpERK with insulin 1.37; replicate 2, z-score of dpERK with insulin 0.34.
For Rad60, the values are replicate 1, z-score of dpERK with insulin 0.72; replicate 2, z-score of dpERK with insulin 0.18.
Against CG13196, the values are replicate 1, z-score of dpERK with insulin -0.49; replicate 2, z-score of dpERK with insulin 0.32.
Vm26Aa gave replicate 1, z-score of dpERK with insulin -0.32; replicate 2, z-score of dpERK with insulin 0.01.
With knock-down of Mppe, the record shows replicate 1, z-score of dpERK with insulin -0.16; replicate 2, z-score of dpERK with insulin 0.53.
After knock-down of CG11779, the record shows replicate 1, z-score of dpERK with insulin 1.41; replicate 2, z-score of dpERK with insulin 0.68.
Silencing of CG30377 #1 gave: replicate 1, z-score of dpERK with insulin 0.39; replicate 2, z-score of dpERK with insulin 0.86.
Silencing of CG30377 #2 came out at: replicate 1, z-score of dpERK with insulin -0.57; replicate 2, z-score of dpERK with insulin -0.04.
Silencing of Hydr2 resulted in: replicate 1, z-score of dpERK with insulin -0.11; replicate 2, z-score of dpERK with insulin -0.15.
Depletion of CG32302 came out at: replicate 1, z-score of dpERK with insulin 0.36; replicate 2, z-score of dpERK with insulin 0.19.
Depletion of CG34377 #1 resulted in: replicate 1, z-score of dpERK with insulin 0.34; replicate 2, z-score of dpERK with insulin -0.19.
Silencing of CG34377 #2 gave: replicate 1, z-score of dpERK with insulin -0.1; replicate 2, z-score of dpERK with insulin 0.55.
With knock-down of CG34377 #3, the screen gave replicate 1, z-score of dpERK with insulin 0.3; replicate 2, z-score of dpERK with insulin -0.1.
Knock-down of CG34377 #4 gave: replicate 1, z-score of dpERK with insulin 0.16; replicate 2, z-score of dpERK with insulin 0.05.
Silencing of CG34377 #5 resulted in: replicate 1, z-score of dpERK with insulin 0.54; replicate 2, z-score of dpERK with insulin 0.31.
CG30371 showed replicate 1, z-score of dpERK with insulin -0.19; replicate 2, z-score of dpERK with insulin -0.87.
Jarid2 showed replicate 1, z-score of dpERK with insulin -0.23; replicate 2, z-score of dpERK with insulin -0.22.
With knock-down of apolpp, the screen gave replicate 1, z-score of dpERK with insulin 0.2; replicate 2, z-score of dpERK with insulin 4.58.
Depletion of CG10171 came out at: replicate 1, z-score of dpERK with insulin 0.16; replicate 2, z-score of dpERK with insulin -0.09.
CadN2 #1 gave replicate 1, z-score of dpERK with insulin 0.62; replicate 2, z-score of dpERK with insulin 0.44.
CadN2 #2 gave replicate 1, z-score of dpERK with insulin 0.84; replicate 2, z-score of dpERK with insulin -0.03.
For CadN2 #3 the deposit lists replicate 1, z-score of dpERK with insulin 0.6; replicate 2, z-score of dpERK with insulin 0.12.
After knock-down of Hsp70Bc, the record shows replicate 1, z-score of dpERK with insulin -0.9; replicate 2, z-score of dpERK with insulin -1.78.

Entries above whose target name begins with T or t:
TfIIFbeta #1 — replicate 1, z-score of dpERK with insulin = 0.54; replicate 2, z-score of dpERK with insulin = 0.44
TfIIFbeta #2 — replicate 1, z-score of dpERK with insulin = 1.37; replicate 2, z-score of dpERK with insulin = 0.34

Further records:
Silencing of CG43102 #1 resulted in: replicate 1, z-score of dpERK with insulin -0.29; replicate 2, z-score of dpERK with insulin 0.31.
For CG43102 #2 the deposit lists replicate 1, z-score of dpERK with insulin 0.55; replicate 2, z-score of dpERK with insulin 0.
CG43102 #3 gave replicate 1, z-score of dpERK with insulin 0.56; replicate 2, z-score of dpERK with insulin 2.27.
AGO3 gave replicate 1, z-score of dpERK with insulin -0.08; replicate 2, z-score of dpERK with insulin 1.08.
Against Fancd2 #1 the deposit lists replicate 1, z-score of dpERK with insulin 0.61; replicate 2, z-score of dpERK with insulin 0.19.
After knock-down of Fancd2 #2, the record shows replicate 1, z-score of dpERK with insulin -0.2; replicate 2, z-score of dpERK with insulin 0.02.
Against Dic1, the entry reads replicate 1, z-score of dpERK with insulin -0.34; replicate 2, z-score of dpERK with insulin -0.53.
O-fut1 showed replicate 1, z-score of dpERK with insulin 0.02; replicate 2, z-score of dpERK with insulin 0.3.
Depletion of Surf6 came out at: replicate 1, z-score of dpERK with insulin -0.11; replicate 2, z-score of dpERK with insulin 0.31.
Silencing of Cpr64Ad came out at: replicate 1, z-score of dpERK with insulin 0.06; replicate 2, z-score of dpERK with insulin 0.01.
For GramD1B #1, the values are replicate 1, z-score of dpERK with insulin 0.25; replicate 2, z-score of dpERK with insulin 0.71.
GramD1B #2 gave replicate 1, z-score of dpERK with insulin 0.23; replicate 2, z-score of dpERK with insulin 0.12.
Nprl2 showed replicate 1, z-score of dpERK with insulin 0.78; replicate 2, z-score of dpERK with insulin 1.58.
For Liprin-gamma the deposit lists replicate 1, z-score of dpERK with insulin -0.68; replicate 2, z-score of dpERK with insulin -0.66.
Silencing of nSyb #1 resulted in: replicate 1, z-score of dpERK with insulin 0.28; replicate 2, z-score of dpERK with insulin 1.41.
Knock-down of nSyb #2 gave: replicate 1, z-score of dpERK with insulin -2.37; replicate 2, z-score of dpERK with insulin 0.95.
